PubChem BioAssay AID2685 (National Center for Advancing Translational Sciences (NCATS), 2010)
The other results are listed elsewhere or left out. The main result of the screen is listed elsewhere. These columns were measured beside it and carry no call. The list favours compounds with an active or inconclusive main result. Potencies come from curve fits of mixed quality, noted in brackets.

Assay: qHTS Assay for Lipid Storage Modulators in Drosophila S3 Cells;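 as to cell number change: cells counted by Cell Tracker Red CMTPX staining in the red channel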
Conditions: BODIPY lipid droplet fluorescence, 18-24 h; for cell number change: measured here: cell count max response, cells fed with added oleic acid
Summary of the method: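 Laser-scanning cytometry quantifies lipid droplet accumulation (500–530 nm total intensity; droplet/cell object ratio) in oleic acid-fed (400 uM added) Drosophila S3 cells treated with a concentration series. 20 uM Triacsin C defined 100% inhibition.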

[1] = measured here: cell number channel AC50, cells fed with added oleic acid
[2] = measured here: lipid fluorescence (Fed channel) AC50, cells fed with added oleic acid

Row | Structure (SMILES) | cell number change | AC50 [1] | AC50 [2]
1 | CN(C)S(=O)(=O)c1ccc(NC(=O)CN2CCC(Cc3ccccc3)CC2)cc1 | 42.4% | 20.6 µM [rising, single point] | 0.116 µM [rising, full curve, poor fit]
2 | CC1(C)CC(=O)c2cnn(-c3nc4ccccc4[nH]3)c2C1 | -17.6% | – | –
3 | O=C(/C=C/c1ccc(S(=O)(=O)NCc2ccco2)cc1)NCc1cccc(Cl)c1 | -50% | 2.31 µM [falling, full curve] | 10.3 µM [falling, partial curve]
4 | Cc1ccc(/C=N/NC(=O)c2cccc([N+](=O)[O-])c2)o1 | 18.6% | – | 5.17 µM [falling, full curve, poor fit]
5 | CCn1ncc(CN2CCCC(C(=O)Nc3cccc(-c4cc5ccccc5[nH]4)c3)C2)c1C (stereo not given) | 0.862% | – | 0.0651 µM [rising, full curve, poor fit]
6 | CCN1CCN(C(=O)c2cc3cc([N+](=O)[O-])ccc3oc2=O)CC1 | – | 0.92 µM [rising, partial curve] | 0.651 µM [rising, full curve]
7 | CCOc1ccccc1NC(=O)CCCN1C(=S)NC(C)(C)CC1C (stereo not given) | 8.53% | – | 8.2 µM [rising, partial curve, poor fit]
8 | Cc1ccc(-c2csc(N3CCN(S(=O)(=O)c4ccc5c(c4)NC(=O)CO5)CC3)n2)cc1 | 26.7% | – | 1.84 µM [rising, partial curve]
9 | C/C(=N\NC(=O)c1cc(-c2ccccc2C)nc2ccccc12)c1cccnc1 | 3.23% | – | 2.59 µM [falling, partial curve]
10 | O=C(CSc1nc2nn(-c3ccccc3)c(=O)c-2c2n1CCCCC2)Nc1ccc(F)cc1F | 13% | – | –
11 | COc1cccc2[nH]c3c(N4CCN(Cc5ccc6c(c5)OCO6)CC4)ncnc3c12 | -19.8% | – | 29.1 µM [falling, single point]
12 | CCOCCCn1c(=N)c(S(=O)(=O)c2ccccc2)cc2c(=O)n3cc(C)ccc3nc21 | – | – | 6.51 µM [rising, single point]
13 | COCCNC(=O)Cn1cc(/C=C(\C#N)C(=O)NC2CCCC2)c2ccccc21 | -33.6% | 25.9 µM [falling, partial curve, poor fit] | –
14 | c1ccc2c(c1)oc1c(NCC3CCCO3)ncnc12 (stereo not given) | -13.9% | – | 23.1 µM [falling, single point]
15 | CC(=O)c1cccc(NC(=O)c2ccc3c(c2)CCN3S(=O)(=O)c2ccccc2)c1 | -32.4% | 23.1 µM [falling, partial curve, poor fit] | 20.6 µM [falling, partial curve]
16 | COCCCNC(=O)Cn1nnc(-c2ccccc2NC(=O)c2ccccc2F)n1 | -7.98% | – | –
17 | O=C(O)CCn1c(=S)n(CCC(=O)O)c2ccccc21 | 31.8% | – | –
18 | CCn1cc([N+](=O)[O-])c(C(=O)Nc2c(C)nn(Cc3c(F)c(F)c(F)c(F)c3F)c2C)n1 | – | 0.259 µM [rising, partial curve, poor fit] | 14.6 µM [rising, partial curve, poor fit]
19 | CN(C(=O)c1ccccn1)c1nnc(-c2ccccn2)s1 | -20% | – | 0.731 µM [falling, single point]
20 | CC(=O)Nc1ccc(C(=O)OCc2ccc(F)cc2)cc1 | -23.6% | 4.61 µM [falling, full curve, poor fit] | –

Compounds from the list above that contain a furan ring, fused or not (three):
Row | Structure (SMILES) | cell number change | AC50 [1] | AC50 [2]
3 | O=C(/C=C/c1ccc(S(=O)(=O)NCc2ccco2)cc1)NCc1cccc(Cl)c1 | -50% | 2.31 µM [falling, full curve] | 10.3 µM [falling, partial curve]
4 | Cc1ccc(/C=N/NC(=O)c2cccc([N+](=O)[O-])c2)o1 | 18.6% | – | 5.17 µM [falling, full curve, poor fit]
14 | c1ccc2c(c1)oc1c(NCC3CCCO3)ncnc12 (stereo not given) | -13.9% | – | 23.1 µM [falling, single point]

Additional structures follow.

Row | Structure (SMILES) | cell number change | AC50 [1] | AC50 [2]
21 | O=[N+]([O-])c1ccccc1/C=C/CN1CCC(O)CC1 | 11.7% | – | 29.1 µM [rising, single point]
22 | CCOC(=O)c1nnc(-c2cccs2)nc1Oc1ccccc1C(=O)OC | -53% | 29.1 µM [falling, single point] | 0.731 µM [falling, full curve]
23 | Cc1ccc(NC(=O)Cc2nnc(SCC(=O)c3ccc(Br)cc3)n2C)cc1 | 69% | 16.4 µM [rising, partial curve] | 18.4 µM [rising, partial curve]
24 | CC1CCCC(NC(=O)CCNC(=O)c2ccc(Br)cc2)C1C (stereo not given) | 16.9% | – | 6.51 µM [rising, single point]
25 | CCOc1ccc(NS(=O)(=O)c2ccc(C(=O)N(CC)CC(=O)NCc3cccs3)cc2)cc1 | -60.9% | 11.2 µM [falling, partial curve] | 11.2 µM [falling, partial curve]
26 | CCOC(=O)CCNC(=O)N1CCCC(N2CCN(c3ccc(OC)cc3)CC2)C1 (stereo not given) | -17.9% | – | 32.6 µM [falling, single point]
27 | CCC(C)(C)n1nnnc1C(c1ccc(C)cc1)N1CCC(C)CC1 (stereo not given) | 1.04% | – | –
28 | C=CCNc1ncnc2c1cnn2-c1ccc(OC)cc1 | -16% | – | 0.517 µM [falling, full curve, poor fit]
29 | Cn1c(SCC(=O)c2ccccc2)nnc1-c1cccc(N)c1 | 85.7% | 14.6 µM [rising, partial curve] | 14.6 µM [rising, partial curve]
30 | O=C(COc1ccccc1F)NC12CC3CC(CC(C3)C1)C2 | -37.5% | 20.6 µM [falling, single point] | 32.6 µM [falling, partial curve, poor fit]
31 | Cc1cc(C(=O)N/N=C/c2cc(Cl)cc([N+](=O)[O-])c2O)c2ccccc2n1 | -8.03% | – | 16.4 µM [rising, partial curve]
32 | S=C(NCCCN1CCOCC1)Nc1ccc(Cl)cc1 | 4.23% | – | 0.291 µM [rising, partial curve, poor fit]
33 | Nc1nc(N2C(=O)C3CC=CCC3C2=O)nn1-c1ccccc1 (stereo not given) | -45.9% | 1.46 µM [falling, full curve] | 29.1 µM [falling, single point]
34 | CCSc1nc2sc3c(c2c(=O)n1-c1ccccc1)CCN(C(C)C)C3 | 84.5% | – | –
35 | CCOC(=O)c1c(C)[nH]c(C)c1S(=O)(=O)NC(C)Cc1ccco1 (stereo not given) | -4.75% | 0.00517 µM [rising, full curve, poor fit] | –
36 | Cc1ccc2cc(CCNC(=O)c3c(-c4ccccc4Cl)noc3C)c(=O)[nH]c2c1 | 23.8% | – | 6.51 µM [rising, single point]
37 | O=C(NCc1cccnc1)c1ccc(COc2ccc3c(c2)CCC3)o1 | -80.4% | 29.1 µM [falling, single point] | 29.1 µM [falling, single point]
38 | NC(=S)N/N=C/c1c(O)ccc2ccccc12 | – | – | 29.1 µM [rising, single point]
39 | CCOC(=O)Cc1csc(CC(N)=O)n1 | -41.1% | – | 20.6 µM [falling, single point]
40 | CN1CCN(c2ccc(NC(=O)N3CCc4ccccc43)cc2)CC1 | -2.07% | 4.61 µM [falling, single point] | –

Row | Structure (SMILES) | cell number change | AC50 [1] | AC50 [2]
41 | COc1ccc(CC(=O)OCC(=O)Nc2cccc(C(C)=O)c2)cc1OC | 11.5% | – | –
42 | COc1ccc(CC(=O)Nc2ccc(C(N)=O)cc2)cc1 | 30.8% | 32.6 µM [rising, single point] | 0.092 µM [rising, partial curve, poor fit]
43 | Cc1cc(C(=O)OCC(=O)Nc2nc(-c3ccccc3)cs2)c(C)o1 | -37.1% | – | 1.03 µM [falling, single point]
44 | O=C(Nc1ccccc1N1CCCC1)c1ccc([N+](=O)[O-])cc1Cl | – | 0.291 µM [rising, single point] | –
45 | COCCn1c(SCC(=O)NC2CC2)nnc1-c1ccc(Cl)cc1 | 1.55% | – | 0.00517 µM [rising, full curve, poor fit]
46 | COc1cc(C(=O)OCC(=O)NC(=O)C2CCCCC2)ccc1OC(F)F | -29.1% | 0.013 µM [falling, full curve, poor fit] | 29.1 µM [falling, single point]
47 | COc1ccc(CN2CCN(C(=O)c3ccco3)CC2)cc1OC | -16.8% | – | –
48 | COc1nc(NC2CCCCC2)nc(N2CCCCCC2)n1 | -45.9% | 23.1 µM [falling, single point] | 23.1 µM [falling, single point]
49 | CN(CC(=O)Nc1cccc(F)c1)CC(=O)N1CCc2ccccc21 | 5.97% | – | 0.731 µM [rising, full curve, poor fit]
50 | O=C(NNc1ccccc1)C(CCO)C(=O)NNc1ccccc1 | 1.02% | – | –
51 | O=C(c1ccccc1)N1CCC(c2nc(-c3ccc(S(=O)(=O)NCC4CCCO4)cc3)no2)CC1 (stereo not given) | – | – | 6.51 µM [rising, single point]
52 | CCOC(=O)c1c(C)nc(SCC(N)=O)c(C#N)c1-c1ccccc1 | 27.4% | – | 8.2 µM [rising, partial curve]
53 | O=C(CSc1nnnn1C1CCCC1)Nc1ccccc1F | 5.74% | – | 0.259 µM [rising, full curve, poor fit]
54 | c1ccc(-c2nnn(C34CC5CC(CC(C5)C3)C4)n2)cc1 | -14.6% | – | 6.51 µM [rising, single point]
55 | COc1ccccc1/C=C/C(=O)NCC(=O)N/N=C(\CCC(=O)O)c1ccccc1 | 19.8% | 2.91 µM [rising, full curve, poor fit] | –
56 | COc1ccc(S(=O)(=O)N2CCCCC2)cc1NC(=O)CCCNC(=O)c1ccc(Cl)cc1 | 27.4% | – | 9.2 µM [rising, partial curve]
57 | COc1ccc(-c2nnc(NC(=O)CSc3ccc(Cl)cc3)s2)cc1OC | – | – | 32.6 µM [rising, single point]
58 | CCn1ncc(C2=NOC(C(=O)Nc3cccnc3)C2)c1C (stereo not given) | -31.7% | 18.4 µM [falling, partial curve] | –

2 entries from above, set out differently.
Row	Structure (SMILES)	cell number change	AC50 [1]	AC50 [2]
3	O=C(/C=C/c1ccc(S(=O)(=O)NCc2ccco2)cc1)NCc1cccc(Cl)c1	-50%	2.31 µM [falling, full curve]	10.3 µM [falling, partial curve]
30	O=C(COc1ccccc1F)NC12CC3CC(CC(C3)C1)C2	-37.5%	20.6 µM [falling, single point]	32.6 µM [falling, partial curve, poor fit]
